This is one part of the list. The main result of the screen is listed elsewhere. These columns were measured beside it and carry no call. Most of these compounds were active or inconclusive in the main read-out, so they are no random draw. The note in brackets gives the kind of curve behind each potency; many fits are weak.
Assay: qHTS Assay for Modulators of Lamin A Splicing
Conditions: HeLa LMNA splicing GFP/RFP minigene ratio, 48 h
In short: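 Read-out is the ratio of GFP to DsRed2 object intensity, acquired by 488 nm laser-scanning cytometry on HeLa lamin A-EGFP minigene reporter cells. Compound incubation 48 hrs at 37 °C in Opti-MEM with 2% FBS; DMSO 0.5% final.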

[1] = measured here: RFP viability control channel
[2] = measured here: GFP splicing reporter channel

## Cc1cc(OCCCC(=O)NCc2cccs2)ccc1Cl
[1]
  AC50: 12.6 µM [rising, single point]

## Cc1cccc(C)c1OCc1n[nH]c(=S)n1N
[1]
  AC50: 6.31 µM [falling, partial curve, poor fit]

## COc1ccc(C2NCCc3[nH]cnc32)cc1 (stereo unspecified)
[2]
  AC50: 22.4 µM [rising, partial curve, poor fit]

## O=c1oc(Cl)c(Cl)c2ccccc12
[2]
  AC50: 15.8 µM [falling, partial curve]
[1]
  AC50: 12.6 µM [falling, partial curve]

## O=P(Oc1ccccc1)(Oc1ccccc1)C(Nc1ccccc1)c1ccccc1 (stereo unspecified)
[1]
  AC50: 15.8 µM [rising, single point]

## Oc1cc(Cl)ccc1Oc1ccc(Cl)cc1Cl
[2]
  AC50: 1.26 µM [falling, partial curve, poor fit]

## Brc1c(Br)c(Br)c2n[nH]nc2c1Br
[2]
  AC50: 22.4 µM [falling, partial curve, poor fit]
[1]
  AC50: 12.6 µM [falling, partial curve]

## O=C(Nc1nc2c(s1)CCCC2)C1CCCN1C(=O)c1cccs1 (stereo unspecified)
[1]
  AC50: 22.4 µM [falling, single point]

## CCCN1CCCC2Cc3[nH]ncc3CC21 (stereo unspecified)
[1]
  AC50: 0.00178 µM [falling, full curve, poor fit]

## Cc1ncc([N+](=O)[O-])n1CCOc1nonc1N
[2]
  AC50: 0.562 µM [falling, partial curve, poor fit]
[1]
  AC50: 0.562 µM [falling, full curve, poor fit]

## C[C@]12N[C@H](Cc3ccccc31)c1ccccc12
[2]
  AC50: 0.1 µM [falling, full curve]

## CCCCCCn1c(N)c(C(=O)NCCN2CCOCC2)c2nc3ccccc3nc21
[2]
  AC50: 25.1 µM [falling, single point]
[1]
  AC50: 22.4 µM [falling, partial curve]

## CC(C)C(=O)c1cn(Cc2ccc(C#N)cc2)c2ccccc12
[1]
  AC50: 35.5 µM [rising, single point]

## CCOP(=O)(/C(C#N)=C(\C)O)c1ccccc1 (stereo unspecified)
[2]
  AC50: 0.00708 µM [falling, full curve, poor fit]
[1]
  AC50: 0.01 µM [falling, full curve, poor fit]

## OC(CCNCCc1c[nH]c2ccccc12)C(F)(F)Cl (stereo unspecified)
[2]
  AC50: 12.6 µM [falling, partial curve, poor fit]

## CCOc1ccc(C2SCC(=O)Nc3c2c(=O)[nH]n3C2CCCCCC2)cc1 (stereo unspecified)
[2]
  AC50: 5.62 µM [rising, single point]

## COc1ccc(-n2c(/C=C/c3cccc(F)c3)nc3ccccc3c2=O)cc1Cl
[2]
  AC50: 2.82 µM [falling, partial curve, poor fit]

## CCN1CC=C(c2c[nH]c3ccccc23)CC1
[1]
  AC50: 17.8 µM [rising, partial curve]

## CCc1nnc(NS(=O)(=O)c2ccc(N=Cc3c(O)n(-c4ccccc4)c(=O)[nH]c3=O)cc2)s1
[1]
  AC50: 0.0282 µM [falling, full curve, poor fit]

## CC(C)N1C(=O)/C(=C/C=C/c2ccco2)C(=O)N(Cc2ccco2)C1=O
[2]
  AC50: 35.5 µM [falling, single point]
[1]
  AC50: 25.1 µM [falling, single point]

## O=[N+]([O-])c1ccc(C2C3C(c4ccccc4)=NC4(CCCC4)N32)cc1 (stereo unspecified)
[1]
  AC50: 0.02 µM [rising, full curve, poor fit]

## C=CCC1(C(C)CCC)C(=O)N=C(S)NC1=O (stereo unspecified)
[2]
  AC50: 0.0126 µM [falling, full curve, poor fit]

## O=C(COc1ccccc1)N1CCN(C/C=C/c2ccccc2)CC1
[2]
  AC50: 11.2 µM [rising, partial curve, poor fit]
[1]
  AC50: 14.1 µM [rising, single point]

## Clc1ccc(C2NCCc3[nH]cnc32)cc1 (stereo unspecified)
[2]
  AC50: 0.00447 µM [falling, full curve, poor fit]
[1]
  AC50: 0.00891 µM [falling, full curve]

## O=Cc1cn(Cc2ccccc2[N+](=O)[O-])c2ccccc12
[2]
  AC50: 11.2 µM [rising, partial curve]
[1]
  AC50: 12.6 µM [rising, partial curve, poor fit]

## Cn1c(=O)oc2cc(S(=O)(=O)N3CCCC(C(=O)Nc4ccccn4)C3)ccc21 (stereo unspecified)
[1]
  AC50: 14.1 µM [rising, single point]

## CC(=O)OC1(Cc2ccccc2)CN2CCC1c1ccccc12 (stereo unspecified)
[1]
  AC50: 35.5 µM [rising, single point]

From PubChem BioAssay AID1487 (National Center for Advancing Translational Sciences (NCATS), 2009)
